Where “and” joins values, the source holds several entries; their conditions need not be identical. Equal values may be shown once. The shares of active, inactive and inconclusive entries below differ from those in the screen. Where the call is inconclusive, the potency comes from a doubtful curve fit. “Side channel” marks fits to a control or component signal instead of the main read-out. Calls of active or inactive are those of the source. Calls follow the shape of the dose curve; as a rule, active = well fitted inhibition curve with a large enough effect in the signal ratio, with a control signal flat (not every such curve was filed as active); inconclusive = small, poorly fitted or top-dose-only effect, or effect the other way, or a change in a side signal; inactive = no such curve, though single readings can be large or run the other way; the % refers to the signal ratio.
These compounds were tested against Peroxisome proliferator-activated receptor delta (Homo sapiens) (UniProt Q03181) (assay: qHTS assay for small molecule antagonists of peroxisome proliferator-activated receptor delta signaling (AID 588535)). Conditions: HEK293T PPARd-UAS-bla, beta-lactamase FRET ratio, 18 h; activity change, negative = inhibition: at 76.7 µM (top of the series).
Description: NIH Chemical Genomics Center [NCGC] U.S. Environmental Protection Agency [EPA] National Institutes of Environmental Health Sciences [NIEHS] National Toxicology Program [NTP] NCGC Assay Overview The Peroxisome proliferator-activated receptors (PPARs) are lipid-activated transcription factors of the nuclear receptor superfamily with three distinct subtypes namely PPAR alpha, PPAR delta (also called PPAR beta) and PPAR gamma. All these subtypes heterodimerizes with Retinoid X receptor (RXR) and have different physiological functions. […] This role of PPAR delta implicates the potential use of its ligands in the treatment of metabolic disorders.
NCGC Assay Protocol Summary Using a beta-lactamase reporter-gene under control Peroxisome Proliferator-Activated Receptor delta (PPAR-delta) response element, a cell-based assay [GeneBLAzer (PPAR-delta-UAS-bla assay developed by Invitrogen] was used to measure PPAR-delta ligands signaling. GeneBLAzer PPAR-delta-UAS-bla HEK293T cells were used with assay medium containing 2% charcoal/dextran FBS. The assay was performed in clear bottom black Greiner 1536-well plates. Library compounds were measured for their ability to inhibit the reporter gene activity. Compounds were screened in a titration series in 1536-well format. The fluorescence intensity (405 nm excitation, 460/530 nm emission) was measured using an EnVision plate reader. […] Concentration-response titration points for each compound were fitted to the Hill equation yielding concentrations of half-maximal inhibition (IC50) and maximal response (efficacy) values. qHTS protocol for PPAR-delta beta-lactamase assay in antagonist mode [Step] [Parameter] [Value] [Description] 1. Reagent; 5 uL; 4000 cells/well 2. Incubation; 37 C for 5 hrs 3. Compounds; 23 nL; 0.59 nM to 92 uM 4. […] Incubation; 37 C for 18 hrs 7. Detection reagent; 1 uL of CCF4-dye 8. Incubation; RT for 2 hrs 9. Detection; Fluorescence; Envision plate reader

Chains of the proteins cited; added tags and fusions are not shown. Lines headed by an entry give the natural chain unless they say otherwise; changes in a name come on top.
UniProt Q03181: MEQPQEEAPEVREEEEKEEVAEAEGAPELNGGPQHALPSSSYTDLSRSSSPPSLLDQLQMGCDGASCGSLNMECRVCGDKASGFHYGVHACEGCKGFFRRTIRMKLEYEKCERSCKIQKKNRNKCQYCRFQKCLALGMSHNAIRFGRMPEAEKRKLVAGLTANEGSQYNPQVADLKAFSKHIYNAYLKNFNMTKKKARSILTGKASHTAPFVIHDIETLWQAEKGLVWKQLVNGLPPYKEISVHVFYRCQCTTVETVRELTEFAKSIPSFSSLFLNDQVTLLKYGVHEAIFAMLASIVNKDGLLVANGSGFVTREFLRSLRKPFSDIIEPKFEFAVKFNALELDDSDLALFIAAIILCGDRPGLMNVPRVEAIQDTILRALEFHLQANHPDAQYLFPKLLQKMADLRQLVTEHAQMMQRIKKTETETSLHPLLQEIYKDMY

SMILES | Potency | activity change, negative = inhibition
C=C(C)[C@H]1CC=C(C)C(=O)C1 | inactive | 
NC(=O)/N=N/C(N)=O | inactive | 
O=C1OC2(c3cc(Br)c(O)c(Br)c3Oc3c2cc(Br)c(O)c3Br)c2c(Cl)c(Cl)c(Cl)c(Cl)c21 |  | inconclusive: 46.2%
CCCCCCCC[N+](CCCCCCCC)(CCCCCCCC)CCCCCCCC | inconclusive: 28.2 µM [fluorescent, side channel, single point] | 
OCC(O)CO | inconclusive: 50.1 µM [side channel, rising, single point] | 
Cc1c2ccccc2c(C)c2c1ccc1ccccc12 | inconclusive: 25.1 µM [fluorescent, side channel, partial curve] and inconclusive: 20 µM [fluorescent, side channel, full curve] | 
O=C(O)c1ccc([N+](=O)[O-])cc1 | inconclusive: 22.4 µM [inhibitor, partial curve, poor fit] | 
CN(C)c1ccc(C(=N)c2ccc(N(C)C)cc2)cc1 | inconclusive: 44.7 µM [side channel, rising, partial curve, poor fit] | 
CCN(CC)c1ccc(N)cc1 |  | inconclusive: 12.3%
O=C(OCC(COC(=O)c1ccccc1)(COC(=O)c1ccccc1)COC(=O)c1ccccc1)c1ccccc1 | inconclusive: 39.8 µM [cytotoxic, side channel, partial curve, poor fit] | 
CC(O)CC(C)O (stereo not given) | inactive | 
NC1=NC(S)C2N=CN=C2N1 (stereo not given) |  | inconclusive: 32.4%
C=Cc1ccccn1 |  | inconclusive: -6.85%
O=C1OC(=O)c2c(Cl)c(Cl)c(Cl)c(Cl)c21 |  | inconclusive: 10.8%
Nc1ccc2cc3ccccc3cc2c1 | inconclusive: 39.8 µM [fluorescent, side channel, partial curve] | 
CC1=C2[C@H](/C=C(\C)C(=O)O)CC[C@@H](C)[C@H]2CC1 | inconclusive: 35.5 µM [side channel, rising, partial curve] | 
NC(=O)CCCCC(N)=O |  | inconclusive: -26.2%
COc1ccc(/C=C/c2cc(OC)cc(=O)o2)cc1 |  | inconclusive: -30%

Random excerpt: 2 records from the list
SMILES | Potency | activity change, negative = inhibition
C=C(C)[C@H]1CC=C(C)C(=O)C1 | inactive | 
O=C1OC2(c3cc(Br)c(O)c(Br)c3Oc3c2cc(Br)c(O)c3Br)c2c(Cl)c(Cl)c(Cl)c(Cl)c21 |  | inconclusive: 46.2%

Continuation:

SMILES | Potency | activity change, negative = inhibition
CCOC(C)(C)C | inactive | 
Oc1cc(Cl)cc(Cl)c1Cl |  | inconclusive: -37%
CC(=O)Nc1ccc(C(=O)CCl)cc1 | inconclusive: 22.4 µM [side channel, rising, single point] | inconclusive: -57.4%
Cc1ccccc1Br |  | inconclusive: -6.87%
CC1=C(/C=C/C(C)=C/C=C/C(C)=C/C=O)C(C)(C)CCC1 |  | inconclusive: -46.9%
CCC1CO1 (stereo not given) | inactive | 
Oc1ccc(O)c2c(O)cccc12 |  | inconclusive: -77.1%
CCCCC(CC)CO (stereo not given) | inactive | 
Cc1cc(Nc2ccc(O)cc2)ccc1N |  | inconclusive: -39.2%
CCc1ccc(C(c2ccc(CC)cc2)C(Cl)Cl)cc1 |  | inconclusive: -33.1%
CCCCCCCCCCCC(=O)O |  | inconclusive: -18.5%
Cc1ccc(S(=O)(=O)Oc2ccc(N=Nc3ccc(-c4ccc(N=Nc5c(O)ccc6cc(S(=O)(=O)O)cc(S(=O)(=O)O)c56)c(C)c4)cc3C)cc2)cc1 |  | inconclusive: 38.9%
Cc1ccccc1C=O | inconclusive: 14.1 µM [inhibitor, full curve, poor fit] | 
Cc1cc(O)c(C(C)(C)C)cc1Sc1cc(C(C)(C)C)c(O)cc1C | inconclusive: 11.2 µM [inhibitor, full curve, poor fit] | inconclusive: -58.4%
CCCCC(CC)COP(=O)(OCC(CC)CCCC)OCC(CC)CCCC (stereo not given) | inactive | 
COc1ccc(C)cc1N | inactive | 
ClCCCl |  | inconclusive: -17.3%
O=Nc1ccc(NO)cc1 | active: 12.6 µM | 

Same assay, conditions: HEK293T PPARd-UAS-bla, beta-lactamase FRET ratio, 18 h; at 76.7 µM (top of the series)

SMILES | activity change, negative = inhibition
O=C1OC(=O)c2c(Cl)c(Cl)c(Cl)c(Cl)c21 | inactive: 10.6%
CCCCCCCCCCCC(=O)O | inactive: -13.2%

From PubChem BioAssay (NCATS)
